From the supplement of paper PMC10849652
The other results are listed elsewhere or left out.

Sequences of proteins named here, by UniProt entry; tags and fusion partners are left off. A change or cut given only in a name is not applied to a line headed by its entry.
UniProt Q8IY26: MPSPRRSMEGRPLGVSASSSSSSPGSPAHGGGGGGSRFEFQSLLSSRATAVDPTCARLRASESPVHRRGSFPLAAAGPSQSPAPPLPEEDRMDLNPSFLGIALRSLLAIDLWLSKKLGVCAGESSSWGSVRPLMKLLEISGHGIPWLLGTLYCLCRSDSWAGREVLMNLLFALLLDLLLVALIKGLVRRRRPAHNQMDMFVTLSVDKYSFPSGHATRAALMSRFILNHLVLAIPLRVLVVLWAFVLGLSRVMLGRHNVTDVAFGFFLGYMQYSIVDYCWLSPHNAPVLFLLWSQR
UniProt Q9H307: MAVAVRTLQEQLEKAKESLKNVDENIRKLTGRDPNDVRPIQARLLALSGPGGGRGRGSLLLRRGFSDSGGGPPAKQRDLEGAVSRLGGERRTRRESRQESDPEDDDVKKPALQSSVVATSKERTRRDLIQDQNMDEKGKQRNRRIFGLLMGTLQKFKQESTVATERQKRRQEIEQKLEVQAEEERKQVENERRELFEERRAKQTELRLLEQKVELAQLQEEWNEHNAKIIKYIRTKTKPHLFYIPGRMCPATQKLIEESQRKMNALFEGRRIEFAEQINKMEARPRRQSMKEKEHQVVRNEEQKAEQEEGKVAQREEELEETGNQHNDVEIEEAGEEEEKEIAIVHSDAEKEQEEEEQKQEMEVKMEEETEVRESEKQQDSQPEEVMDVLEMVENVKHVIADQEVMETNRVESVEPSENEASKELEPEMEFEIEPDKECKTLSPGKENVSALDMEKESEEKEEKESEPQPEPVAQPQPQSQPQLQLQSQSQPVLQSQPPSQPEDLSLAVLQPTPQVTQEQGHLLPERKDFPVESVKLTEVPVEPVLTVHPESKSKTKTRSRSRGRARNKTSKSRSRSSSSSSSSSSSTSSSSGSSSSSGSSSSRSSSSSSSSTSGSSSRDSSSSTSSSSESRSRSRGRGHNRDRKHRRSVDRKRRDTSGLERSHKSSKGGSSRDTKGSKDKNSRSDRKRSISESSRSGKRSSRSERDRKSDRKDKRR
UniProt Q15165: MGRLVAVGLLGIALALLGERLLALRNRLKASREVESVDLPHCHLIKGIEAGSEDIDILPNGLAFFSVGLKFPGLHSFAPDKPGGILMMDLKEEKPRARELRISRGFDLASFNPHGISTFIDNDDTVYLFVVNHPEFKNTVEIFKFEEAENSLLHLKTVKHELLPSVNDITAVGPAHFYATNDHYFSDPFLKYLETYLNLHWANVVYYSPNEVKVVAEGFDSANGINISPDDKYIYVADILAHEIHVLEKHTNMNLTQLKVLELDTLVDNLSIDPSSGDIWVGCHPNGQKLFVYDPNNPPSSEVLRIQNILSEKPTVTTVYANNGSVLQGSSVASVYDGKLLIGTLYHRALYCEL
UniProt Q13356: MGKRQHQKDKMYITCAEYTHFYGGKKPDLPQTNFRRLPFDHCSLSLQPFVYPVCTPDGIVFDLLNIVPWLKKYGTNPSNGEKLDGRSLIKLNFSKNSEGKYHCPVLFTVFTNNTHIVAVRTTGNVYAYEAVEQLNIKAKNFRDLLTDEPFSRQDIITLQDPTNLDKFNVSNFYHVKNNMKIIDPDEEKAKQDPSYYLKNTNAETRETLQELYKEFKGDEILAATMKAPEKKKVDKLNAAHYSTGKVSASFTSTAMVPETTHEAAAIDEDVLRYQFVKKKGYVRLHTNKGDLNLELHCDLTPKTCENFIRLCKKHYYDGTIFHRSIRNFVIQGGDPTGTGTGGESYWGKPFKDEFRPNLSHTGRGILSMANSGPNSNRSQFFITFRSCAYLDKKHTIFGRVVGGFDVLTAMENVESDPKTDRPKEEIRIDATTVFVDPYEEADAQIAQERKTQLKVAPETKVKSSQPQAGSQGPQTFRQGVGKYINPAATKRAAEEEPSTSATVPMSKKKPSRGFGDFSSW
UniProt Q8N490: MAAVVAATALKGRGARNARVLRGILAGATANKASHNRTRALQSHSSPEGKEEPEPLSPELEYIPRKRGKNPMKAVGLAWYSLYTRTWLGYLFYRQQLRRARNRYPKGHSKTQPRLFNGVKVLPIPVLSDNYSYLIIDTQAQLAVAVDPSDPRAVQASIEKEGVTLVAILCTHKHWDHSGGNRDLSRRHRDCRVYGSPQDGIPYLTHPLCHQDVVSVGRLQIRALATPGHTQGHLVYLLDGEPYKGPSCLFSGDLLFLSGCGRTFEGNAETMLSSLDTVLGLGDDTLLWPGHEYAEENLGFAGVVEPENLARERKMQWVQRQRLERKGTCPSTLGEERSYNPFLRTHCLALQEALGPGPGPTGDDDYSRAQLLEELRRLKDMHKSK
UniProt O43314: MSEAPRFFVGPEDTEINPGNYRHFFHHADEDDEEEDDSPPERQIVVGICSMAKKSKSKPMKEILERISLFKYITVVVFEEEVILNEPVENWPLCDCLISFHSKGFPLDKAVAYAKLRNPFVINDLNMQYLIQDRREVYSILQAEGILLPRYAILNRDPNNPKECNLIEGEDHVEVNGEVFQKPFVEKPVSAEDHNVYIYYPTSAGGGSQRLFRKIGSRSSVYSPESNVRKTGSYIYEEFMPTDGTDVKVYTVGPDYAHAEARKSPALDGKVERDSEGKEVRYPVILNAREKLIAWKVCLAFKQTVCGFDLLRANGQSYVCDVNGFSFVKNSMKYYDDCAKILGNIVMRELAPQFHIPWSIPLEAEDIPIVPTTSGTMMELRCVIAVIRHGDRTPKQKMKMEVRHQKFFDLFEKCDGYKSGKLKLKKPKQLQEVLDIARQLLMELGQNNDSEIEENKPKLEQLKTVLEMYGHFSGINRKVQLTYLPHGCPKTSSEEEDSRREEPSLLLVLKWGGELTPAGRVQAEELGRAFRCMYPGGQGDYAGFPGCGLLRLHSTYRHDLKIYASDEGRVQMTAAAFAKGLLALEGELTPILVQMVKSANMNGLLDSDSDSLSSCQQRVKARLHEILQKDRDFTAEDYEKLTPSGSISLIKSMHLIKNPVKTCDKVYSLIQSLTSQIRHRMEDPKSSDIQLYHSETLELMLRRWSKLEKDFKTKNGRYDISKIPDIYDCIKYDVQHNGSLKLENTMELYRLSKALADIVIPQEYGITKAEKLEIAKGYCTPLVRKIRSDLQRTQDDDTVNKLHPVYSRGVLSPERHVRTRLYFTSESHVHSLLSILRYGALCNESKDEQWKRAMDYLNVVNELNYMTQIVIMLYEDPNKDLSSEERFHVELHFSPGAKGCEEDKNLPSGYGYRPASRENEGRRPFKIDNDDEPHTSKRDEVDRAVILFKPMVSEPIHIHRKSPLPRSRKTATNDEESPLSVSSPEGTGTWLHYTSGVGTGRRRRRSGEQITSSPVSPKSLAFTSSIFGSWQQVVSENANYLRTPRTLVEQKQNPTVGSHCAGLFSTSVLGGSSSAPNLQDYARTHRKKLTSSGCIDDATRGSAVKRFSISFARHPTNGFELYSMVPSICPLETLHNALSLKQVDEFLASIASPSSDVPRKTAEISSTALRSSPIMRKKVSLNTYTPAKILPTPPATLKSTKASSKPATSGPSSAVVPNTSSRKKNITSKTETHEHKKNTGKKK
UniProt O43660: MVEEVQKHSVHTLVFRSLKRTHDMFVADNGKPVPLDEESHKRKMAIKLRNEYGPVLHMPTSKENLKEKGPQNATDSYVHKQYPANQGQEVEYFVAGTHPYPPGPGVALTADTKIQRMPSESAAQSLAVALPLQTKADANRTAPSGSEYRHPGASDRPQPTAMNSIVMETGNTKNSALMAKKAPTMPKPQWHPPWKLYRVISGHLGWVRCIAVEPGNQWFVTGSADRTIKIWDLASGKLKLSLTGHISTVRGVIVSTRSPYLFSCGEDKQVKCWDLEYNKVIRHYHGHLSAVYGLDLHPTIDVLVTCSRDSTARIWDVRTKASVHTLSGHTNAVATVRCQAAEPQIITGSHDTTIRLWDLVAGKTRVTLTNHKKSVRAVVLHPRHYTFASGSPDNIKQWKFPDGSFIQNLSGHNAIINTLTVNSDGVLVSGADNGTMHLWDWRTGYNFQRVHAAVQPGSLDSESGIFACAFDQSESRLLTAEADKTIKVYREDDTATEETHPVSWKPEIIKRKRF
UniProt Q9NW08: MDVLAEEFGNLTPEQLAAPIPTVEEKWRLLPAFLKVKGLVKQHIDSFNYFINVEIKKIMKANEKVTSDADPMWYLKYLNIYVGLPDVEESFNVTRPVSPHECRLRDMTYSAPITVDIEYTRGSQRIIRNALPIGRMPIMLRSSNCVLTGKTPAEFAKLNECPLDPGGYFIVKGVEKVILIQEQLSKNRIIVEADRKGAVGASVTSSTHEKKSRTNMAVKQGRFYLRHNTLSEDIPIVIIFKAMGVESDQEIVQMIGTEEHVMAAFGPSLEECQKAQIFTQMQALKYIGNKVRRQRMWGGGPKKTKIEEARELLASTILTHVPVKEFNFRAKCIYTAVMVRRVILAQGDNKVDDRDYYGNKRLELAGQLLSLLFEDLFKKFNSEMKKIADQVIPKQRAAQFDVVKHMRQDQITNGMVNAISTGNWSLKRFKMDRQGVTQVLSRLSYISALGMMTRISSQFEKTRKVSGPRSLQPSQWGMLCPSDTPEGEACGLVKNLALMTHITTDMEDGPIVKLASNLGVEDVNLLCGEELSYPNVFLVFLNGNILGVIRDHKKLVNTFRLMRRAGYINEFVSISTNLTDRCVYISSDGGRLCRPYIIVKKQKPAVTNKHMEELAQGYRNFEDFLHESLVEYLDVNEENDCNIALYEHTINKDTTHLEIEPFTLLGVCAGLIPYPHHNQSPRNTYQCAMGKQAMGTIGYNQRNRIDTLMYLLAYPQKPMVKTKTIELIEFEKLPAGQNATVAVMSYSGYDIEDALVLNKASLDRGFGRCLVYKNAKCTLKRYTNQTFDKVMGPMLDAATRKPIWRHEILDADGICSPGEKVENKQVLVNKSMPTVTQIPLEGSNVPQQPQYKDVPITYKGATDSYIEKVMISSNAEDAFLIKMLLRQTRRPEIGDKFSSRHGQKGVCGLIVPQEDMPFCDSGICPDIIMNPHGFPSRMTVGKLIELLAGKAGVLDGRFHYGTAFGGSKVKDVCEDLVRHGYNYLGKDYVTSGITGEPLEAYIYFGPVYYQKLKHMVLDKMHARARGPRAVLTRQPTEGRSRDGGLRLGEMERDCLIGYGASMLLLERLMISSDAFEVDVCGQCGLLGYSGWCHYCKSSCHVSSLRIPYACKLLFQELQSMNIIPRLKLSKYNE
UniProt Q9HAB8: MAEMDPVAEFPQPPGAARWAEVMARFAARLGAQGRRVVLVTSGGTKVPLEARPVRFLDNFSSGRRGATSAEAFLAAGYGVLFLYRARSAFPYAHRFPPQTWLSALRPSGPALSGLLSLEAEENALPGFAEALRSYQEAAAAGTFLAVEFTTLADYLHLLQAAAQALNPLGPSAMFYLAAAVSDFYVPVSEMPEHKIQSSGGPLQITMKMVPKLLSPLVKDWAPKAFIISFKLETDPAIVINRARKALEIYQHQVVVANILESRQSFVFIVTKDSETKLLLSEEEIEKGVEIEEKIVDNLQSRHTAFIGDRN
UniProt Q08752, whole entry, looked up: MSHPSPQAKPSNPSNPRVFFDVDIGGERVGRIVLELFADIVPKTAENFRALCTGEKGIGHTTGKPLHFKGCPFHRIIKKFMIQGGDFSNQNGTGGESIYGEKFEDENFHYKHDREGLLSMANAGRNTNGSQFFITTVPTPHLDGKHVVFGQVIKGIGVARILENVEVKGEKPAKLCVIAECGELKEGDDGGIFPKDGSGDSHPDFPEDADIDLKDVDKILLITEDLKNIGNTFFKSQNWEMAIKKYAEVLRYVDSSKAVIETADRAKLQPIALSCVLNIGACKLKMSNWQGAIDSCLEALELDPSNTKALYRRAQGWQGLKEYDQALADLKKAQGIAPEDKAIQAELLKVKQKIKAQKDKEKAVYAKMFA
UniProt O60568: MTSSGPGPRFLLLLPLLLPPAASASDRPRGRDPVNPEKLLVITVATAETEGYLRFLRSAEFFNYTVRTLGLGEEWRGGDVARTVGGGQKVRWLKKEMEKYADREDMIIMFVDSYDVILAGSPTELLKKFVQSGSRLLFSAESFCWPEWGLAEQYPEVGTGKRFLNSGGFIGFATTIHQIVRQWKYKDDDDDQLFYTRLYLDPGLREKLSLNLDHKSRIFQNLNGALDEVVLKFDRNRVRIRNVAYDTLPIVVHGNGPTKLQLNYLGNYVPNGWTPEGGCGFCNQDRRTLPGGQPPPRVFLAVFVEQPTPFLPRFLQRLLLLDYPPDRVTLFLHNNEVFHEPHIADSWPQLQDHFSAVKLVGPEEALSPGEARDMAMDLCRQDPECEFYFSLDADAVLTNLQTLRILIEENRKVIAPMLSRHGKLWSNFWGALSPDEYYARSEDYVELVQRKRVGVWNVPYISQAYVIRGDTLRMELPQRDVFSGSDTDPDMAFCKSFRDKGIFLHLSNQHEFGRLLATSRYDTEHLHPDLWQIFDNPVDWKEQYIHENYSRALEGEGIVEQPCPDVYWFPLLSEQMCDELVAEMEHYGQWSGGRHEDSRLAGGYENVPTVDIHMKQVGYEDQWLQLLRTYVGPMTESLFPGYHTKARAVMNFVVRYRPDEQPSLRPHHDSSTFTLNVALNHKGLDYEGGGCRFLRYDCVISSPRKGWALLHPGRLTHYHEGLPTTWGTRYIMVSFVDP

Key:
Assay in all cases: log2 fold change, soluble protein after heating vs DMSO (PISA); higher = thermal stabilisation; K562 cells, 10 uM, 30 min; active = over 0.2 and 3.5 SD of the protein, either way, in both replicates (recomputed)
[1] = compound: COC1=CC=C(C=C1)CN2C=CC3=C2C=C(C=C3)C(=O)NO
How it was run: (§1)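 K562 cells at 2×10^6 cells/mL were treated for 30 min with 10 μM compound, and aliquots were heated for 3 min over 48°C-58°C before pooling. Extraction used PBS with 0.5% NP-40 at 4°C, and soluble protein was the supernatant after 21,000xg for 90 min, measured by TMTpro 16plex LC-MS/MS with channel sums equalised. Thermal stability values, relative to control samples and from duplicates, are log2 fold changes.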

filanesib = compound: CON(C)C(=O)N1N=C(c2cc(F)ccc2F)S[C@@]1(CCCN)c1ccccc1 [filanesib]
How it was run: as §1

zotarolimus = compound: CO[C@H]1C[C@@H]2CC[C@@H](C)[C@@](O)(O2)C(=O)C(=O)N2CCCC[C@H]2C(=O)O[C@H]([C@H](C)C[C@@H]2CC[C@H](n3cnnn3)[C@H](OC)C2)CC(=O)[C@H](C)/C=C(\C)[C@@H](O)[C@@H](OC)C(=O)[C@H](C)C[C@H](C)/C=C/C=C/C=C/1C [zotarolimus]
How it was run: as §1

idasanutlin = compound: COc1cc(C(=O)O)ccc1NC(=O)[C@@H]1N[C@@H](CC(C)(C)C)[C@](C#N)(c2ccc(Cl)cc2F)[C@H]1c1cccc(Cl)c1F [idasanutlin]
How it was run: as §1

alisertib = compound: COc1cc(Nc2ncc3c(n2)-c2ccc(Cl)cc2C(c2c(F)cccc2OC)=NC3)ccc1C(=O)O [alisertib]
How it was run: as §1

[2] = compound: COc1cc2nc(-c3cc(F)ccc3O)nc(N[C@@H]3CNC[C@H]3C(C)(C)O)c2cc1OC
How it was run: as §1

gefitinib = compound: COc1cc2ncnc(Nc3ccc(F)c(Cl)c3)c2cc1OCCCN1CCOCC1 [gefitinib]
How it was run: as §1

[3] = compound: COc1cccc2cc(-c3nc([C@H]4CC[C@H](C(=O)O)CC4)n4ncnc(N)c34)[nH]c12
How it was run: as §1

lapatinib = compound: CS(=O)(=O)CCNCc1ccc(-c2ccc3ncnc(Nc4ccc(OCc5cccc(F)c5)c(Cl)c4)c3c2)o1 [lapatinib]
How it was run: as §1

pictilisib = compound: CS(=O)(=O)N1CCN(Cc2cc3nc(-c4cccc5[nH]ncc45)nc(N4CCOCC4)c3s2)CC1 [pictilisib]
How it was run: as §1

Measured: log2 fold change

PODXL2 (UniProt Q9NZ53)
inactive: [1] 0.052 | filanesib -0.121 | zotarolimus 0.13 | idasanutlin -0.091 | alisertib -0.084 | [2] 0.052 | gefitinib -0.145 | [3] 0.059 | lapatinib 0.008 | pictilisib 0.057

PLPP6 (UniProt Q8IY26)
inactive: [1] 0.04 | filanesib -0.044 | zotarolimus -0.168 | idasanutlin 0 | alisertib -0.034 | [2] -0.128 | gefitinib -0.001 | [3] 0.034 | lapatinib 0.299 | pictilisib -0.246

PNN (UniProt Q9H307)
inactive: [1] -0.004 | filanesib 0.083 | zotarolimus -0.047 | idasanutlin 0.125 | alisertib -0.017 | [2] -0.14 | gefitinib 0.031 | [3] 0.056 | lapatinib -0.037 | pictilisib -0.015

PLS3 (UniProt H7C4N2)
inactive: [1] -0.281 | filanesib 0.051

PON2 (UniProt Q15165)
inactive: [1] -0.012 | filanesib -0.046 | zotarolimus 0.033 | idasanutlin 0.019 | alisertib 0.018 | [2] 0.011 | gefitinib 0.034 | [3] 0.041 | lapatinib -0.027 | pictilisib -0.152

PPAN isoform 3 (UniProt Q9NQ55)
inactive: [1] -0.077 | filanesib 0.21 | zotarolimus 0.153 | idasanutlin 0.147 | alisertib -0.051 | [2] 0.123 | gefitinib -0.1 | [3] 0.119 | lapatinib 0.097 | pictilisib -0.088

POLRMT (UniProt O00411)
inactive: [1] -0.005 | filanesib 0.071

PPIL2 (UniProt Q13356)
inactive: [1] 0.035 | filanesib 0.012 | zotarolimus 0.05 | idasanutlin -0.032 | alisertib 0.01 | [2] 0.131 | gefitinib 0.076 | [3] -0.023 | lapatinib -0.02 | pictilisib 0.028

PNKD isoform 3 (UniProt Q8N490)
inactive: [1] 0.132 | filanesib -0.068 | zotarolimus 0.028 | idasanutlin 0.013 | alisertib -0.026 | [2] -0.2 | gefitinib 0.067 | [3] 0.031 | lapatinib -0.065 | pictilisib -0.007

PPM1A isoform 3 (UniProt P35813)
inactive: [1] 0 | filanesib -0.061 | zotarolimus -0.037 | idasanutlin 0 | alisertib 0.017 | [2] 0.058 | gefitinib 0.016 | [3] -0.002 | lapatinib -0.029 | pictilisib 0.112

POLG (UniProt P54098)
inactive: [1] -0.06 | filanesib -0.033 | zotarolimus -0.038 | idasanutlin 0.053 | alisertib -0.001 | [2] 0.187 | gefitinib 0.131 | [3] -0.073 | lapatinib -0.179 | pictilisib 0.145

PNPT1 (UniProt Q8TCS8)
inactive: [1] 0.033 | filanesib -0.036 | zotarolimus 0.013 | idasanutlin -0.082 | alisertib 0.018 | [2] 0.074 | gefitinib 0.068 | [3] 0.041 | lapatinib -0.017 | pictilisib -0.002

PPIP5K2 (UniProt O43314)
inactive: [1] 0.009 | filanesib -0.036 | zotarolimus -0.003 | idasanutlin -0.038 | alisertib -0.034 | [2] 0.075 | gefitinib -0.008 | [3] 0.034 | lapatinib -0.032 | pictilisib 0.095

POLR3A (UniProt O14802)
inactive: [1] 0.036 | filanesib -0.083 | zotarolimus 0.115 | idasanutlin -0.03 | alisertib -0.047 | [2] -0.037 | gefitinib 0.022 | [3] 0.046 | lapatinib 0.101 | pictilisib 0.074

POLR3K (UniProt Q9Y2Y1)
inactive: [1] -0.078 | filanesib -0.03 | zotarolimus -0.063 | idasanutlin 0.006 | alisertib -0.156 | [2] 0.01 | gefitinib -0.023 | [3] 0.044 | lapatinib 0.057 | pictilisib -0.04

PNPLA4 (UniProt P41247)
inactive: [1] 0.041 | filanesib -0.184 | zotarolimus -0.142 | idasanutlin 0.003 | alisertib 0.026 | [2] -0.133 | gefitinib 0.015 | [3] 0.113 | lapatinib -0.049

POLR2C (UniProt P19387)
inactive: [1] -0.04 | filanesib 0.034 | zotarolimus -0.012 | idasanutlin -0.074 | alisertib 0.013 | [2] -0.022 | gefitinib -0.045 | [3] 0.086 | lapatinib 0.099

POFUT2 (UniProt Q9Y2G5)
inactive: [1] -0.053 | filanesib 0.101 | zotarolimus 0.024 | idasanutlin 0.015 | alisertib 0.018 | [2] 0.073 | gefitinib 0.02 | [3] -0.024 | lapatinib -0.041 | pictilisib -0.017

PLRG1 (UniProt O43660)
inactive: [1] -0.024 | filanesib 0.042 | zotarolimus -0.031 | idasanutlin 0.037 | alisertib -0.032 | [2] -0.026 | gefitinib -0.004 | [3] 0.031 | lapatinib -0.016 | pictilisib -0.114

POLR1A (UniProt O95602)
inactive: [1] 0.248 | filanesib 0.075 | zotarolimus -0.05 | idasanutlin 0.063 | alisertib -0.076 | [2] -0.007 | gefitinib 0.037 | [3] -0.008 | lapatinib 0.069 | pictilisib 0.078

POLR1D (UniProt P0DPB6)
inactive: [1] -0.049 | filanesib 0.024 | zotarolimus 0.007 | idasanutlin 0.056 | alisertib -0.102 | [2] -0.072 | gefitinib 0.03 | [3] -0.113 | lapatinib 0.103

POLR3B (UniProt Q9NW08)
inactive: [1] 0.026 | filanesib 0.065 | zotarolimus 0.075 | idasanutlin 0.008 | alisertib -0.086 | [2] 0.08 | gefitinib 0.105 | [3] -0.135 | lapatinib 0.008 | pictilisib -0.019

POMGNT1 isoform 2 (UniProt Q8WZA1)
inactive: [1] -0.23 | filanesib 0.019 | zotarolimus -0.003 | idasanutlin 0.038 | alisertib -0.238 | [2] 0.11 | gefitinib 0.157 | [3] -0.145 | lapatinib -0.102 | pictilisib 0.101

PPCS (UniProt Q9HAB8)
inactive: [1] -0.038 | filanesib -0.043 | zotarolimus -0.027 | idasanutlin -0.018 | alisertib 0.024 | [2] 0.035 | gefitinib 0.005 | [3] 0.036 | lapatinib -0.038 | pictilisib 0.019

PPIP5K1 (UniProt Q6PFW1)
inactive: [1] -0.019 | filanesib -0.015 | zotarolimus 0.002 | idasanutlin -0.012 | alisertib -0.032 | [2] -0.032 | gefitinib -0.003 | [3] 0.058 | lapatinib 0.047 | pictilisib 0.097

PMS2 (UniProt P54278)
inactive: [1] -0.883 | filanesib 0.321 | zotarolimus -0.152 | idasanutlin -0.405

PPID (UniProt Q08752)
inactive: [1] 0.041 | filanesib 0 | zotarolimus 0.056 | idasanutlin -0.055 | alisertib -0.009 | [2] 0.093 | gefitinib 0.112 | [3] -0.091 | lapatinib -0.041 | pictilisib 0.039

PLOD3 (UniProt O60568)
inactive: [1] -0.075 | filanesib 0.075 | zotarolimus 0.007 | idasanutlin 0.011 | alisertib -0.084 | [2] 0.015 | gefitinib 0.019 | [3] -0.061 | lapatinib 0.039 | pictilisib 0

2 consecutive records already listed, for reference:
PPAN isoform 3 (UniProt Q9NQ55)
inactive: [1] -0.077 | filanesib 0.21 | zotarolimus 0.153 | idasanutlin 0.147 | alisertib -0.051 | [2] 0.123 | gefitinib -0.1 | [3] 0.119 | lapatinib 0.097 | pictilisib -0.088

POLRMT (UniProt O00411)
inactive: [1] -0.005 | filanesib 0.071

More results

PLXNA1 (UniProt Q9UIW2)
inactive: [1] 0.004 | filanesib 0.063 | zotarolimus -0.011 | idasanutlin 0.003 | alisertib -0.015 | [2] 0.053 | gefitinib -0.043 | [3] 0.042 | lapatinib -0.037 | pictilisib 0.028

PPIB (UniProt P23284)
inactive: [1] -0.08 | filanesib 0.065 | zotarolimus 0.012 | idasanutlin 0.046 | alisertib -0.115 | [2] -0.006 | gefitinib -0.003 | [3] -0.044 | lapatinib 0.011 | pictilisib -0.022

POLR2D (UniProt O15514)
inactive: [1] 0.02 | filanesib 0.009 | zotarolimus -0.029 | idasanutlin -0.083 | alisertib -0.159 | [2] -0.021 | gefitinib -0.001 | [3] 0.043 | lapatinib 0.017 | pictilisib -0.026

POLR2M (UniProt Q6EEV4)
inactive: [1] -0.046 | filanesib 0.076 | zotarolimus 0.034 | idasanutlin 0.046 | alisertib -0.144 | [2] -0.063 | gefitinib 0.076 | [3] -0.033 | lapatinib -0.084
